According to the supplement of paper PMC10849652:
The list shows a part of the results.

Protein sequences, listed by entry. Tags and fused reporters are not part of them. Lines headed by an entry give the natural chain unless they say otherwise; changes in a name come on top.
UniProt Q14192: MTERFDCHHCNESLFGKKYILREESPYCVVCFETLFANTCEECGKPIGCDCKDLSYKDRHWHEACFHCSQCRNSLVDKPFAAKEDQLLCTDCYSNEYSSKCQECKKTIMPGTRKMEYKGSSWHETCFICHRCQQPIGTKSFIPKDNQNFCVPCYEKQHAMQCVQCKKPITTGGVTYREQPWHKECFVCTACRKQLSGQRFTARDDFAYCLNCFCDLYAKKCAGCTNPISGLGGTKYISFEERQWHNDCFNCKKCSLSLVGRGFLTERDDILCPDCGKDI
UniProt O95363: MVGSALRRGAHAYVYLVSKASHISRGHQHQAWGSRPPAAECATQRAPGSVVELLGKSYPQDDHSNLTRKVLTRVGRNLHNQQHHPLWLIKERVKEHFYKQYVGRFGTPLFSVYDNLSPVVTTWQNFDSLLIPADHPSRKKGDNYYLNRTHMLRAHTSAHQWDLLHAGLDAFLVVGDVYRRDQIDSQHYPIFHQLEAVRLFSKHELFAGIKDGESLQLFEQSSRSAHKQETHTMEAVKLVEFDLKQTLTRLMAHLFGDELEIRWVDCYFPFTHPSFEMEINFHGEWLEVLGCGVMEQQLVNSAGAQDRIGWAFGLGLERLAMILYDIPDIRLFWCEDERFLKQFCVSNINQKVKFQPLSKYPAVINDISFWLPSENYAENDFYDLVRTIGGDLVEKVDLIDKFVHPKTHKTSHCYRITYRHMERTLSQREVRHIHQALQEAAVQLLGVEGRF
UniProt Q9UKT8: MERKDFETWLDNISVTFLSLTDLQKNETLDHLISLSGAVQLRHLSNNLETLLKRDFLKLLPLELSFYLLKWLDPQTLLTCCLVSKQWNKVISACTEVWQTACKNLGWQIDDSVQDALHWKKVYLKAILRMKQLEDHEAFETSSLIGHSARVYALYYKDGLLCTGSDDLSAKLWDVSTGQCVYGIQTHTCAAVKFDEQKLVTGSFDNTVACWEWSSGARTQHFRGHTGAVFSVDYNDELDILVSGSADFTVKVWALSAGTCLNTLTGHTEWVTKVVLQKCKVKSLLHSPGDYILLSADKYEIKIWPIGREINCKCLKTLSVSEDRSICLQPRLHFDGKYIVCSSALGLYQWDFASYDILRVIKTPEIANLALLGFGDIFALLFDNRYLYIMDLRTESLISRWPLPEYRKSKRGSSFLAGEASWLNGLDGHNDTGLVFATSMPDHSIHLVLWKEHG
UniProt Q8NB91: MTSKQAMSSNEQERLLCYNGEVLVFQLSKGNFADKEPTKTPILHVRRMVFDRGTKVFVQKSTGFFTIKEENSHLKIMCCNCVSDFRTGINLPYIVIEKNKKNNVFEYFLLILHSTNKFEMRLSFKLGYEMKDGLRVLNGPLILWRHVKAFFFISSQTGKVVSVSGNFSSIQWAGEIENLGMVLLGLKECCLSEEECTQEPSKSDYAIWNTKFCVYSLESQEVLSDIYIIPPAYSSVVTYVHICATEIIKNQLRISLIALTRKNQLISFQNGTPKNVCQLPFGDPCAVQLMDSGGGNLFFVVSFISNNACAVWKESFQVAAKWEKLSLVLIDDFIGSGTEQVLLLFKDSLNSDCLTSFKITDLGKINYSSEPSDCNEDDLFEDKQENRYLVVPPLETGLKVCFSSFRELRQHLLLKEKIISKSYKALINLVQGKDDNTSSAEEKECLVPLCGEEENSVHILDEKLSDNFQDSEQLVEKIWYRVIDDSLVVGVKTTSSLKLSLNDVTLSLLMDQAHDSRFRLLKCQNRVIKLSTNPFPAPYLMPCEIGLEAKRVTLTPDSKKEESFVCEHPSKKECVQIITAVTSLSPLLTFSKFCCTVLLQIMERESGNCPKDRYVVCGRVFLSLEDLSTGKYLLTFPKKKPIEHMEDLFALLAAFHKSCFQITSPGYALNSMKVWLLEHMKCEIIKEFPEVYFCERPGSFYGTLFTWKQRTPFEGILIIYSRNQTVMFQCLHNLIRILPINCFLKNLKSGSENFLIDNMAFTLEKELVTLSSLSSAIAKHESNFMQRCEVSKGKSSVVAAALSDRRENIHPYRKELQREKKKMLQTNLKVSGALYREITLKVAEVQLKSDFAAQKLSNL
UniProt Q9UK97: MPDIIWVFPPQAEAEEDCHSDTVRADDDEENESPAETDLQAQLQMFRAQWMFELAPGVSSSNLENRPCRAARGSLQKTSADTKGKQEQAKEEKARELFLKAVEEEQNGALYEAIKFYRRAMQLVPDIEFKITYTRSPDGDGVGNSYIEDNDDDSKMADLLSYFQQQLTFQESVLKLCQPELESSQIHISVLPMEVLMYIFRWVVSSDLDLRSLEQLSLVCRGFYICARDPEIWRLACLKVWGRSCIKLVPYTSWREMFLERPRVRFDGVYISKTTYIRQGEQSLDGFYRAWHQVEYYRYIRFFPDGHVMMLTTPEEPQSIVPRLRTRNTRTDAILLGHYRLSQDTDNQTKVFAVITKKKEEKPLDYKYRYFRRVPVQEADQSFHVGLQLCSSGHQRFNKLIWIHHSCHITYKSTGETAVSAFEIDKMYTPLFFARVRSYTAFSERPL
UniProt Q86UX7, whole entry, looked up: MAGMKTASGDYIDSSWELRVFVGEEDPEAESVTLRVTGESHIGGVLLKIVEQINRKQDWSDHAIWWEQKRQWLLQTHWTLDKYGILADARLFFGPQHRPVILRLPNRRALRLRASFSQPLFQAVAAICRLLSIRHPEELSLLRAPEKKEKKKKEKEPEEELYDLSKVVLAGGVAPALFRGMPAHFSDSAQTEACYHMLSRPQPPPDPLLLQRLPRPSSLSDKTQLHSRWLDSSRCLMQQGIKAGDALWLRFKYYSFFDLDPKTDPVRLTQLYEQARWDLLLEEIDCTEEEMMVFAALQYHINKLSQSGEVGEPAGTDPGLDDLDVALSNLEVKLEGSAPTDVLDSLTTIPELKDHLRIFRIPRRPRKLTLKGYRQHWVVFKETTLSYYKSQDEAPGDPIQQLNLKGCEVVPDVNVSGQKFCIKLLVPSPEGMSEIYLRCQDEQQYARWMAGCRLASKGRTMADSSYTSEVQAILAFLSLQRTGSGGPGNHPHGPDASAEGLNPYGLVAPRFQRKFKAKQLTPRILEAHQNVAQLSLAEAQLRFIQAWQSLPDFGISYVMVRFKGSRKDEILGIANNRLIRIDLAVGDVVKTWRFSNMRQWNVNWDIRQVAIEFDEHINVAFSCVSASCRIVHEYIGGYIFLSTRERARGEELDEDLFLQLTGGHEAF
UniProt Q9UKT5: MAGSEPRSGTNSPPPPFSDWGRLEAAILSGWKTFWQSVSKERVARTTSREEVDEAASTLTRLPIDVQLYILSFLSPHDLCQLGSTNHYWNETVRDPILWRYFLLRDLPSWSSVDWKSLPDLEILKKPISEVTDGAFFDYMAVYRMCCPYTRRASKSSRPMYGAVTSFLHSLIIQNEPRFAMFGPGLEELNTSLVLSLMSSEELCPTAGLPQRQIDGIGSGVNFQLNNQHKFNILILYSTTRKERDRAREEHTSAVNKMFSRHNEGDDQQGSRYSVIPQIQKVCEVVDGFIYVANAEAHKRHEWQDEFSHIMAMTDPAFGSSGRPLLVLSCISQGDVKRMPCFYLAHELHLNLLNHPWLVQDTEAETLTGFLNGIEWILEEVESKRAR
UniProt A6NHQ2: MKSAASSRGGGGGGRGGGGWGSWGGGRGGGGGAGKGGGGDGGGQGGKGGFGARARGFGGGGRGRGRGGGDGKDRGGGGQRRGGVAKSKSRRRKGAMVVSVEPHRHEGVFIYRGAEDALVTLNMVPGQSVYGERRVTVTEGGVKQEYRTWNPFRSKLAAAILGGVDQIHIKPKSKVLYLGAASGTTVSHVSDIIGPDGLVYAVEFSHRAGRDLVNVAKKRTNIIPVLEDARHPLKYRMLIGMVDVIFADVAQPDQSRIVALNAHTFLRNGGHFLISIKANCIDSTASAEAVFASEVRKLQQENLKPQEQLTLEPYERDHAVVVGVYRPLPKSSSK
UniProt Q9Y421: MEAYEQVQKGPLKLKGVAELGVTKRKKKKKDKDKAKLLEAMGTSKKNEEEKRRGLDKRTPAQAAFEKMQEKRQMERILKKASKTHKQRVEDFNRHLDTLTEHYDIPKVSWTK
UniProt Q5T1M5: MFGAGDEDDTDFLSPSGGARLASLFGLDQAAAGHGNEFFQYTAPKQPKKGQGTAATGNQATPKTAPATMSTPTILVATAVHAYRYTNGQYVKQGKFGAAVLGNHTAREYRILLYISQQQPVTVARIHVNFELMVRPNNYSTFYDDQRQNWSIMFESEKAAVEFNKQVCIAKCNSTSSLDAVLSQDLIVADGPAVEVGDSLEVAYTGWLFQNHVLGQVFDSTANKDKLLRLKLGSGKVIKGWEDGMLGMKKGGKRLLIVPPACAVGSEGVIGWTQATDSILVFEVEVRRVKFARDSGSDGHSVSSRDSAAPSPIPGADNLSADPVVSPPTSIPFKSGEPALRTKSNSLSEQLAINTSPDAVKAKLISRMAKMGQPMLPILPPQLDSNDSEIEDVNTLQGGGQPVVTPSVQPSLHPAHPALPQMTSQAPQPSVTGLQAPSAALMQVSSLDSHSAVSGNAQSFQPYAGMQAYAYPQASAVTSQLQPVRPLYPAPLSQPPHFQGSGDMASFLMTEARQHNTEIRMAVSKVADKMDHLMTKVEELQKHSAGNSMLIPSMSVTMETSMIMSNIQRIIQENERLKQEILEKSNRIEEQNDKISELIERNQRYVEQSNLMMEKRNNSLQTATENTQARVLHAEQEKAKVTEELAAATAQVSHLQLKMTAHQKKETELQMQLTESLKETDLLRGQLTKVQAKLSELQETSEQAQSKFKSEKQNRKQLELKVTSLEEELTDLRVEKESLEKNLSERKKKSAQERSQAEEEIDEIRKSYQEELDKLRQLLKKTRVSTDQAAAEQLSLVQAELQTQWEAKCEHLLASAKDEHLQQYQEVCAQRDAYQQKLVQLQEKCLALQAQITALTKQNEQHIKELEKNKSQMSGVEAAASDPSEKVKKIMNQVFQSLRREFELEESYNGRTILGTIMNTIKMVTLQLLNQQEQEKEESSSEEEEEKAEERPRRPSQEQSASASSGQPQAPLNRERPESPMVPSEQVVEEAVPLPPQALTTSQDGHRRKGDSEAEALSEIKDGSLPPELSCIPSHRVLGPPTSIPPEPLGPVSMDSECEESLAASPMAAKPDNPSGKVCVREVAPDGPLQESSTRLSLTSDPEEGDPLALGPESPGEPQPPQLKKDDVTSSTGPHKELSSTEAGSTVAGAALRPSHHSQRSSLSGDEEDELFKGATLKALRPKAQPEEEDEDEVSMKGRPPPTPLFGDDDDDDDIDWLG
UniProt P39748, whole entry, looked up: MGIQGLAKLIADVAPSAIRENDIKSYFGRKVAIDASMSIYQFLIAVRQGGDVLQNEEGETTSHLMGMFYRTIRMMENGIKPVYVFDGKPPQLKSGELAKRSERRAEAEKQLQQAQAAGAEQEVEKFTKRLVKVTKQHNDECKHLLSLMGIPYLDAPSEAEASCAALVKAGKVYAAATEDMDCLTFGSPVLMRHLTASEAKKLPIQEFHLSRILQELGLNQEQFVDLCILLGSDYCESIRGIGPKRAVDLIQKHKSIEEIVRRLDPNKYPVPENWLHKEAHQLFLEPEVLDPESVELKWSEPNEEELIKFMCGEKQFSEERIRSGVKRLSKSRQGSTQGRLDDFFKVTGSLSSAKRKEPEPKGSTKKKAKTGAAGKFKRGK
UniProt Q13643: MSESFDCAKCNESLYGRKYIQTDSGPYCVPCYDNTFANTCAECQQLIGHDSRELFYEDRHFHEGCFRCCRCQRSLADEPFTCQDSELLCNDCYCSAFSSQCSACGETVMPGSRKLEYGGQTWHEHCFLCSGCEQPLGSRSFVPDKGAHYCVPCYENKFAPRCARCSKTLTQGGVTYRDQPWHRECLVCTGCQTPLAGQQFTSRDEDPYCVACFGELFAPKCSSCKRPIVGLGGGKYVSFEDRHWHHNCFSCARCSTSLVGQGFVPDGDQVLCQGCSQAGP
UniProt Q6P3S6: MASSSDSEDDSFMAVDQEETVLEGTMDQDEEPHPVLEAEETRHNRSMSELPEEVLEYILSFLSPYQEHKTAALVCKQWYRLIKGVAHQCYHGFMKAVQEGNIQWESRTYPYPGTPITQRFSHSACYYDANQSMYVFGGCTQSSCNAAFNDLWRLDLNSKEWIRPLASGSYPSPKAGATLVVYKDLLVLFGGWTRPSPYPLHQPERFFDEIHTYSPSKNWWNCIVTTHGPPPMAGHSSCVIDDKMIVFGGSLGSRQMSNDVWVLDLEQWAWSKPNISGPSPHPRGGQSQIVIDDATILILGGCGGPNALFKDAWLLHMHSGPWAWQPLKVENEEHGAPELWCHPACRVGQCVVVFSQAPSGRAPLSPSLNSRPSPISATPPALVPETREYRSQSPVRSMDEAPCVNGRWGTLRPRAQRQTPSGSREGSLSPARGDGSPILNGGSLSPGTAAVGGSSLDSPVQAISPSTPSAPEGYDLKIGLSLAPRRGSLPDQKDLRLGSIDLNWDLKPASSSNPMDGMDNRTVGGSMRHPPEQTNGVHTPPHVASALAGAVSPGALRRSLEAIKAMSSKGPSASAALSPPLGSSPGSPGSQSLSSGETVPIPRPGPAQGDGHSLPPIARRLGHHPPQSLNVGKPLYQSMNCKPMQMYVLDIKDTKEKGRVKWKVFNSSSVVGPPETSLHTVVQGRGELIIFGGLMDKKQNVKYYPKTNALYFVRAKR

What was measured:
Assay in all cases: log2 fold change, soluble protein after heating vs DMSO (PISA); higher = thermal stabilisation; K562 cells, 10 uM, 30 min; active = over 0.2 and 3.5 SD of the protein, either way, in both replicates (recomputed)
[1] = compound: C1=CC=C(C=C1)[C@H](COC2=CC3=C(C=C2)NC(=O)N3)NC(=O)C4=CC=CN(C4=O)CC5=CC(=C(C=C5)F)F
In short: (§1)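 Aliquots of K562 cells (2×10^6 cells/mL) treated with 10 μM compound for 30 min were heated for 3 min over 48°C-58°C. After pooling and extraction in PBS with 0.5% NP-40 at 4°C, soluble protein from a 21,000xg, 90 min spin was quantified by TMTpro 16plex LC-MS/MS with channel sums equalised. Thermal stability is expressed against control samples, from duplicates, as a log2 fold change.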

[2] = compound: CC1=C(SC2=C1C(=N[C@H](C3=NN=C(N32)C)CC(=O)N)C4=CC=C(C=C4)Cl)C
In short: as §1

[3] = compound: CC1=C2C(=CC=C1)N=C(N(C2=O)C3=CC=CC=C3C)CN4C=NC5=C(N=CN=C54)N
In short: as §1

[4] = compound: Cc1sc2c(c1C)C(c1ccc(Cl)cc1)=N[C@@H](CC(=O)OC(C)(C)C)c1nnc(C)n1-2
In short: as §1

[5] = compound: c1ccc([C@@H]2C[C@H]2NC2CCNCC2)cc1
In short: as §1

Target | log2 fold change [1] | log2 fold change [2] | log2 fold change [3] | log2 fold change [4] | log2 fold change [5]
FN3K (UniProt Q9H479) | inactive: 0.016 | inactive: 0.033 | inactive: 0.001 | inactive: -0.003 | inactive: 0.003
FCHO2 (UniProt Q0JRZ9) | inactive: -0.025 | inactive: 0.053 | inactive: 0.061 | inactive: -0.003 | inactive: 0.043
FN3KRP (UniProt Q9HA64) | inactive: 0.025 | inactive: 0.016 | inactive: 0.024 | inactive: -0.011 | inactive: 0.044
FAM98B (UniProt Q52LJ0) | inactive: 0.027 | inactive: 0.008 | inactive: -0.082 | inactive: 0.045 | inactive: -0.117
FAM234A (UniProt Q9H0X4) | inactive: 0.03 | inactive: 0.118 | inactive: -0.031 | inactive: -0.019 | inactive: -0.046
FAM3A (UniProt P98173) | inactive: -0.01 | inactive: -0.001 | inactive: 0.038 | inactive: -0.051 | inactive: -0.014
FAM50A (UniProt Q14320) | inactive: -0.026 | inactive: 0.032 | inactive: 0.033 | inactive: -0.025 | inactive: 0.007
FASTKD5 (UniProt Q7L8L6) | inactive: -0.32 | inactive: 0.014 | inactive: 0.105 | inactive: -0.122 | inactive: 0.155
FLNC (UniProt Q14315) | inactive: -0.014 | inactive: 0.028 | inactive: 0.035 | inactive: 0 | inactive: -0.003
FBXO30 (UniProt Q8TB52) | inactive: -0.043 | inactive: 0.074 | inactive: 0.12 | inactive: -0.017 | inactive: -0.068
FBXL12 (UniProt Q9NXK8) | inactive: -0.048 | inactive: 0.144 | inactive: 0.068 | inactive: 0.085 | inactive: -0.124
FHL2 (UniProt Q14192) | inactive: 0.026 | inactive: -0.007 | inactive: 0.006 | inactive: 0.017 | inactive: 0.056
FHL1 isoform 4 (UniProt Q13642) | inactive: -0.161 | inactive: -0.02 | inactive: -0.001 | inactive: -0.039 | inactive: 0.09
FBXO38 (UniProt Q6PIJ6) | inactive: 0.019 | inactive: 0.014 | inactive: 0.105 | inactive: 0.024 | inactive: 0.033
FBXW9 (UniProt Q5XUX1) | inactive: -0.07 | inactive: 0.032 | inactive: -0.015 | inactive: 0.07 | inactive: -0.024
FARS2 (UniProt O95363) | inactive: -0.021 | inactive: 0.022 | inactive: 0.006 | inactive: 0.069 | inactive: -0.018
FN1 isoform 1 (UniProt P02751) | inactive: -0.076 | inactive: 0.018 | inactive: 0.002 | inactive: -0.018 | inactive: 0.033
FEM1B (UniProt Q9UK73) | inactive: -0.026 | inactive: -0.02 | inactive: 0.102 | inactive: 0.008 | inactive: 0.025
FBXW2 (UniProt Q9UKT8) | inactive: 0.093 | inactive: 0.052 | inactive: -0.025 | inactive: 0.044 | inactive: 0.237
FAM49B (UniProt Q9NUQ9) | inactive: -0.012 | inactive: 0.036 | inactive: 0.075 | inactive: -0.026 | inactive: -0.001
FARSB (UniProt Q9NSD9) | inactive: -0.017 | inactive: 0.021 | inactive: 0.028 | inactive: 0.019 | inactive: -0.005
FKBP5 (UniProt Q13451) | inactive: -0.141 | inactive: 0.006 | inactive: 0.101 | inactive: -0.028 | inactive: -0.097
FANCB (UniProt Q8NB91) | inactive: -0.002 | inactive: 0.057 | inactive: 0.019 | inactive: -0.056 | inactive: 0.013
FBXO9 (UniProt Q9UK97) | inactive: -0.011 | inactive: 0.23 | inactive: 0.016 | inactive: 0.161 | inactive: 0.07
FAT1 (UniProt Q14517) | inactive: -0.059 | inactive: -0.038 | inactive: 0.126 | inactive: -0.071 | inactive: 0.155
FGFR1OP (UniProt O95684) | inactive: -0.005 | inactive: 0.016 | inactive: 0.064 | inactive: 0.038 | inactive: -0.028
FLYWCH2 (UniProt Q96CP2) | inactive: 0.036 | inactive: -0.007 | inactive: -0.044 | inactive: -0.014 | inactive: -0.051

Target | log2 fold change [1] | log2 fold change [2] | log2 fold change [3] | log2 fold change [4] | log2 fold change [5]
FERMT3 (UniProt Q86UX7) | inactive: -0.026 | inactive: 0.066 | inactive: 0.053 | inactive: -0.018 | inactive: -0.019
FDX2 (UniProt Q6P4F2) | inactive: 0.047 | inactive: 0.064 | inactive: 0.025 | inactive: -0.028 | inactive: 0.024
FDX1 (UniProt P10109) | inactive: -0.046 | inactive: -0.042 | inactive: -0.021 | inactive: 0.012 | inactive: -0.002
FASTKD2 (UniProt Q9NYY8) | inactive: -0.026 | inactive: 0.054 | inactive: 0.071 | inactive: 0.014 | inactive: -0.002
FANCI (UniProt Q9NVI1) | inactive: -0.071 | inactive: 0.028 | inactive: 0.109 | inactive: -0.008 | inactive: -0.037
FASTKD1 (UniProt Q53R41) | inactive: -0.038 | inactive: 0.151 | inactive: 0.013 | inactive: 0.204 | inactive: 0.07
FAT2 (UniProt Q9NYQ8) | inactive: -0.092 | active: 0.669 | inactive: 0.163 | inactive: -0.091 | inactive: -0.218
FBXO4 (UniProt Q9UKT5) | inactive: -0.013 | inactive: 0.04 | inactive: 0.022 | inactive: -0.031 | inactive: -0.09
FBLL1 (UniProt A6NHQ2) | inactive: 0.151 | inactive: -0.105 | inactive: -0.272 | inactive: 0.084 | inactive: 0.111
FNBP4 isoform 2 (UniProt Q8N3X1) | inactive: 0.049 | inactive: -0.014 | inactive: 0.045 | inactive: 0.014 | inactive: 0.027
FLT4 (UniProt P35916) | inactive: -0.056 | inactive: -0.019 | inactive: 0.037 | inactive: -0.061 | inactive: -0.112
FAM32A (UniProt Q9Y421) | inactive: 0 | inactive: -0.15 | inactive: 0.024 | inactive: 0.021 | inactive: 0.037
FGF13 isoform 3 (UniProt Q92913) | inactive: 0.005 | inactive: 0.051 | inactive: 0.035 | inactive: 0.007 | inactive: -0.085
FH (UniProt P07954) | inactive: -0.008 | inactive: 0.084 | inactive: 0.021 | inactive: -0.016 | inactive: -0.05
FARSA (UniProt Q9Y285) | inactive: -0.021 | inactive: 0.035 | inactive: 0.062 | inactive: 0.012 | inactive: -0.04
FCSK isoform 2 (UniProt Q8N0W3) | inactive: -0.04 | inactive: 0.002 | inactive: 0.017 | inactive: 0.009 | inactive: 0.03
FAM83D (UniProt Q9H4H8) | inactive: -0.068 | inactive: 0.027 | inactive: 0 | inactive: 0.045 | inactive: 0.06
FHAD1 isoform 3 (UniProt B1AJZ9) | inactive: -0.258 | inactive: -0.018 | inactive: -0.153 | inactive: -0.065 | inactive: -0.092
FKBP15 (UniProt Q5T1M5) | inactive: -0.006 | inactive: 0.02 | inactive: 0.106 | inactive: 0.013 | inactive: -0.027
FEN1 (UniProt P39748) | inactive: -0.198 | inactive: 0.097 | inactive: 0.157 | inactive: -0.009 | inactive: -0.043
FHL3 (UniProt Q13643) | inactive: 0.039 | inactive: 0.018 | inactive: -0.014 | inactive: -0.01 | inactive: 0.019
FKBP4 (UniProt Q02790) | inactive: -0.032 | inactive: 0.042 | inactive: 0.037 | inactive: 0.004 | inactive: -0.029
FBXO42 (UniProt Q6P3S6) | inactive: -0.022 | inactive: 0.017 | inactive: 0.094 | inactive: 0.141 | inactive: 0.077
FLAD1 (UniProt Q8NFF5) | inactive: 0.044 | inactive: 0.159 | inactive: 0.089 | inactive: 0.028 | inactive: -0.056
FKBP9 (UniProt O95302) | inactive: 0.038 | inactive: 0.015 | inactive: 0.026 | inactive: 0.025 | inactive: -0.041
FBXL18 isoform 4 (UniProt Q96ME1) | inactive: -0.027 | inactive: 0.007 | inactive: 0.012 | inactive: -0.042 | inactive: -0.007

Reformatted with tabs: part of the list above
Target	log2 fold change [1]	log2 fold change [2]	log2 fold change [3]	log2 fold change [4]	log2 fold change [5]
FERMT3 (UniProt Q86UX7)	inactive: -0.026	inactive: 0.066	inactive: 0.053	inactive: -0.018	inactive: -0.019
FBXO4 (UniProt Q9UKT5)	inactive: -0.013	inactive: 0.04	inactive: 0.022	inactive: -0.031	inactive: -0.09
FBLL1 (UniProt A6NHQ2)	inactive: 0.151	inactive: -0.105	inactive: -0.272	inactive: 0.084	inactive: 0.111
FLT4 (UniProt P35916)	inactive: -0.056	inactive: -0.019	inactive: 0.037	inactive: -0.061	inactive: -0.112
FAM32A (UniProt Q9Y421)	inactive: 0	inactive: -0.15	inactive: 0.024	inactive: 0.021	inactive: 0.037
FARSA (UniProt Q9Y285)	inactive: -0.021	inactive: 0.035	inactive: 0.062	inactive: 0.012	inactive: -0.04
FAM83D (UniProt Q9H4H8)	inactive: -0.068	inactive: 0.027	inactive: 0	inactive: 0.045	inactive: 0.06
FKBP15 (UniProt Q5T1M5)	inactive: -0.006	inactive: 0.02	inactive: 0.106	inactive: 0.013	inactive: -0.027
FBXO42 (UniProt Q6P3S6)	inactive: -0.022	inactive: 0.017	inactive: 0.094	inactive: 0.141	inactive: 0.077
FKBP9 (UniProt O95302)	inactive: 0.038	inactive: 0.015	inactive: 0.026	inactive: 0.025	inactive: -0.041
